Values from PubChem BioAssay AID1224830 (NIAID, 2016).
In all, the deposit lists about 18,000 reagents; this is a part drawn at random. About 2,900 of them (16%) count as active. 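Calls are made per well; low scores hint the gene aids the LPS response, high scores that it dampens it.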 A number with no mark means an inactive call. Repeated entries: four replicate wells of each siRNA pool. No sequences are given here.

Purpose: 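Regulators of TLR4 signalling towards TNF-alpha in macrophage-like cells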 (primary screen)
System: human THP-1 monocytic leukaemia cells, TNF dual-luciferase reporter clone, PMA-differentiated to macrophage-like cells
Reagent: siRNA pool against human genes, 50 nM
Duration: LPS for 4 h, given about 3 days after siRNA transfection
Treatment: bacterial LPS (TLR4 ligand), 10 ng/ml
Read-out: 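TNF firefly reporter luminescence divided by renilla, normalised to the plate median, then turned into a robust z-score for each replicate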
Direction: TNF reporter robust z-score: higher = stronger TNF reporter response to LPS
Call rule: 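a well is active when its z-score exceeds 2.8 or falls below -1.5; control wells carry no call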

FAM218A (family with sequence similarity 218 member A) showed TNF reporter robust z-score 1.65. After knock-down of FAM218A (family with sequence similarity 218 member A), the screen gave TNF reporter robust z-score -0.18. After knock-down of FAM218A (family with sequence similarity 218 member A) the results were TNF reporter robust z-score 0.52. With knock-down of FAM218A (family with sequence similarity 218 member A), the record shows TNF reporter robust z-score 0.83. With knock-down of XPOT (exportin for tRNA) the results were TNF reporter robust z-score 0.2. With knock-down of XPOT (exportin for tRNA), the screen gave TNF reporter robust z-score 1.39.

XPOT (exportin for tRNA) gave TNF reporter robust z-score 0.32. Depletion of XPOT (exportin for tRNA) resulted in: TNF reporter robust z-score 1.2. SLC52A1 gave TNF reporter robust z-score -0.31. For SLC52A1 the deposit lists TNF reporter robust z-score 0.15. SLC52A1 gave TNF reporter robust z-score -0.4. SLC52A1 scored TNF reporter robust z-score 0.61.

Knock-down of CKM (creatine kinase, M-type) came out at: TNF reporter robust z-score -0.71. CKM (creatine kinase, M-type) gave TNF reporter robust z-score 2.28. For CKM (creatine kinase, M-type), the values are TNF reporter robust z-score -1.1. CKM (creatine kinase, M-type) scored TNF reporter robust z-score -1.22. Depletion of FOXL2 (forkhead box L2) came out at: TNF reporter robust z-score -0.44. With knock-down of FOXL2 (forkhead box L2) the results were TNF reporter robust z-score 0.51.

Depletion of FOXL2 (forkhead box L2) gave: TNF reporter robust z-score -0.36. After knock-down of FOXL2 (forkhead box L2), the record shows TNF reporter robust z-score 0.62. Against PCDHB2 (protocadherin beta 2), the entry reads TNF reporter robust z-score -0.25. With knock-down of PCDHB2 (protocadherin beta 2) the results were TNF reporter robust z-score 1.06. PCDHB2 (protocadherin beta 2) scored TNF reporter robust z-score 0.85. Knock-down of PCDHB2 (protocadherin beta 2) resulted in: TNF reporter robust z-score 0.97.

Depletion of BPGM (bisphosphoglycerate mutase) gave: TNF reporter robust z-score 2. After knock-down of BPGM (bisphosphoglycerate mutase), the screen gave TNF reporter robust z-score 2.18. BPGM (bisphosphoglycerate mutase) scored TNF reporter robust z-score 0.1. Silencing of BPGM (bisphosphoglycerate mutase) came out at: TNF reporter robust z-score 0.53. Depletion of KRT6B (keratin 6B) came out at: TNF reporter robust z-score -1.18. With knock-down of KRT6B (keratin 6B), the record shows TNF reporter robust z-score -1.04.

KRT6B (keratin 6B) scored TNF reporter robust z-score -1.22. KRT6B (keratin 6B) gave TNF reporter robust z-score -0.55. Knock-down of DZIP1L (DAZ interacting zinc finger protein 1 like) came out at: TNF reporter robust z-score 1.26. Against DZIP1L (DAZ interacting zinc finger protein 1 like) the deposit lists TNF reporter robust z-score 1.58. For DZIP1L (DAZ interacting zinc finger protein 1 like), the values are TNF reporter robust z-score 0.8. DZIP1L (DAZ interacting zinc finger protein 1 like) scored TNF reporter robust z-score 1.4.

Against ZNF831 (zinc finger protein 831), the entry reads TNF reporter robust z-score -0.6. With knock-down of ZNF831 (zinc finger protein 831) the results were TNF reporter robust z-score 0.99. Silencing of ZNF831 (zinc finger protein 831) resulted in: TNF reporter robust z-score -0.94. With knock-down of ZNF831 (zinc finger protein 831), the record shows TNF reporter robust z-score -0.1. Against FCMR (Fc mu receptor) the deposit lists TNF reporter robust z-score -0.17. With knock-down of FCMR (Fc mu receptor), the record shows TNF reporter robust z-score -0.71.

Against FCMR (Fc mu receptor), the values are TNF reporter robust z-score -0.97. FCMR (Fc mu receptor) gave TNF reporter robust z-score 0.28. HSD17B6 (hydroxysteroid 17-beta dehydrogenase 6) gave TNF reporter robust z-score 2.09. Knock-down of HSD17B6 (hydroxysteroid 17-beta dehydrogenase 6) gave: TNF reporter robust z-score 0.7. HSD17B6 (hydroxysteroid 17-beta dehydrogenase 6) showed TNF reporter robust z-score 22.1 (active). For HSD17B6 (hydroxysteroid 17-beta dehydrogenase 6) the deposit lists TNF reporter robust z-score 1.89.

After knock-down of BTD (biotinidase), the record shows TNF reporter robust z-score -1.57 (active). Against BTD (biotinidase), the entry reads TNF reporter robust z-score -0.26. BTD (biotinidase) gave TNF reporter robust z-score -0.28. Against BTD (biotinidase), the entry reads TNF reporter robust z-score -0.55. With knock-down of PDE6B (phosphodiesterase 6B), the record shows TNF reporter robust z-score 1.81. For PDE6B (phosphodiesterase 6B), the values are TNF reporter robust z-score -0.01.

For PDE6B (phosphodiesterase 6B) the deposit lists TNF reporter robust z-score 1.08. PDE6B (phosphodiesterase 6B) gave TNF reporter robust z-score 0.27. MPDU1 (mannose-P-dolichol utilization defect 1) scored TNF reporter robust z-score -0.99. MPDU1 (mannose-P-dolichol utilization defect 1) gave TNF reporter robust z-score -0.23. After knock-down of MPDU1 (mannose-P-dolichol utilization defect 1), the record shows TNF reporter robust z-score -0.87. Depletion of MPDU1 (mannose-P-dolichol utilization defect 1) resulted in: TNF reporter robust z-score -0.36.

3 entries from above, arranged by “TNF reporter robust z-score”, ascending.
CKM (creatine kinase, M-type) — TNF reporter robust z-score = -1.22
CKM (creatine kinase, M-type) — TNF reporter robust z-score = -1.1
FOXL2 (forkhead box L2) — TNF reporter robust z-score = -0.44
